No constants are given. Whether binding was seen depends on the method and setting. Binding seen in cells or lysates may run through a third protein. Binding can be weak; no strength is given.
Biological target: T1, TMEM43, endogenous in mouse heart (mouse (endogenous in heart)) (UniProt Q9DBS1)
T1 sequence: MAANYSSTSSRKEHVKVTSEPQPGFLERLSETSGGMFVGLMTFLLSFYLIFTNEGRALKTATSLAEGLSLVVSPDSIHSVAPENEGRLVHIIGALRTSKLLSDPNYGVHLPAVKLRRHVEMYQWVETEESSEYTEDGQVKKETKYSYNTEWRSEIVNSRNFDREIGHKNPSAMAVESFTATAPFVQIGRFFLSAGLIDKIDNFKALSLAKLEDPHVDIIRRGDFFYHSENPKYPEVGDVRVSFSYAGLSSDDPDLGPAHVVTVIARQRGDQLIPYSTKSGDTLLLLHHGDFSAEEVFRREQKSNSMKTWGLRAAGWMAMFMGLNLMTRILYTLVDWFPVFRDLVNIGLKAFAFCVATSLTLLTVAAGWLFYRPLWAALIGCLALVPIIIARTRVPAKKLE
Assay: co-IP; endogenous IP from lysate of adult C57/B6 mouse hearts with antibodies of TMEM43 and VDAC1; immunoblotting

Protein sequences, listed by entry. Tags and fused reporters are not part of them. Lines headed by an entry give the natural chain unless they say otherwise; changes in a name come on top.
UniProt Q60932: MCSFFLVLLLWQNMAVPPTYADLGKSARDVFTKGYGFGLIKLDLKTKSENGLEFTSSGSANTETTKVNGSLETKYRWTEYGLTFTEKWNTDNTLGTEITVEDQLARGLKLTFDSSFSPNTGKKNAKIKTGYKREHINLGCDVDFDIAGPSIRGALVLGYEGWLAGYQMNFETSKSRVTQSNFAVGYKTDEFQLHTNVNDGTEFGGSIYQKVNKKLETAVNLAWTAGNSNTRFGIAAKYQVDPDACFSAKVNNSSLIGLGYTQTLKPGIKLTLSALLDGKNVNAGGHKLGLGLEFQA

With “VDAC1, endogenous in mouse heart (from UniProt Q60932)” the binding was “binds”.
